No constants are given. Whether binding was seen depends on the method and setting. Binding seen in cells or lysates may run through a third protein. Some results given as binding are weak or reduced against the parent protein; the word gives no strength.
Target: GFP-p62 (UniProt Q13501)
Experiment: co-IP; HeLa cells transfected with GFP-vector or the GFP-tagged protein for 16 h (48 h for the Htt(1–548) constructs); GFP-tagged proteins pulled down with GFP-Trap_MA beads (Chromotek); endogenous CCT2 detected by blot

- binding: binds
B1: CCT2 (protein, UniProt P78371 1-535)
chain: MASLSLAPVNIFKAGADEERAETARLTSFIGAIAIGDLVKSTLGPKGMDKILLSSGRDASLMVTNDGATILKNIGVDNPAAKVLVDMSRVQDDEVGDGTTSVTVLAAELLREAESLIAKKIHPQTIIAGWREATKAAREALLSSAVDHGSDEVKFRQDLMNIAGTTLSSKLLTHHKDHFTKLAVEAVLRLKGSGNLEAIHIIKKLGGSLADSYLDEGFLLDKKIGVNQPKRIENAKILIANTGMDTDKIKIFGSRVRVDSTAKVAEIEHAEKEKMKEKVERILKHGINCFINRQLIYNYPEQLFGAAGVMAIEHADFAGVERLALVTGGEIASTFDHPELVKLGSCKLIEEVMIGEDKLIHFSGVALGEACTIVLRGATQQILDEAERSLHDALCVLAQTVKDSRTVYGGGCSEMLMAHAVTQLANRTPGKEAVAMESYAKALRMLPTIIADNAGYDSADLVAQLRAAHSEGNTTAGLDMREGTIGDMAILGITESFQVKRQVLLSAAEAAEVILRVDNIIKAAPRKRVPDHHPC

From PMC5155164
